Measurements reported in PubChem BioAssay AID602196 (INSERM, 2012).
Shown is a random part of about 23,000 reagents tested. In the full data, 455 (2%) were called active. 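Active includes both protection and sensitisation; some change values fall well beyond the stated -50 to +50 range.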 Not given: the amount of reagent.

Aim: 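Modifiers of cisplatin sensitivity in A549 cells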
Cells: human A549 lung cancer cells
Knock-down reagent: siRNA pair against human genes
Time to read-out: 48 h transfection before cisplatin; time from cisplatin to read-out not stated
Challenge: cisplatin at a dose killing half of control-siRNA cells; exact dose and duration not given
Detection: 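Shift in cisplatin death relative to control siRNA, from -50 (all cells die) to +50 (no cells die); siRNAs harmful on their own scored 0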
Direction: two-siRNA summed score (-2 to +2): higher = both siRNAs protect from cisplatin killing; -2 means both sensitise; mean protection from cisplatin (shift in death) and protection from cisplatin (shift in death), siRNA C and protection from cisplatin (shift in death), siRNA D: higher = protection from cisplatin killing
Hit rule: 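siRNAs harmful alone (LDH or WST-1) get 0; others get +1 for less and -1 for more cisplatin killing; genes are active when the two siRNAs give the same sign, summing to ±2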
Calls: active = both siRNAs shift cisplatin killing the same way; inactive = no consistent shift, or siRNA harmful alone

no.	Target gene	two-siRNA summed score (-2 to +2)	mean protection from cisplatin (shift in death) (%)	protection from cisplatin (shift in death), siRNA C (%)	protection from cisplatin (shift in death), siRNA D (%)	Outcome
1	CCDC32 (coiled-coil domain containing 32)	1	12.6	14.8	10.4	inactive
2	KLHL29 (kelch like family member 29)	1	12.8	14.5	11.2	inactive
3	ROR2 (ROR family WNT receptor 2)	0	9.4	6.1	12.7	inactive
4	FOLH1B (folate hydrolase 1B (pseudogene))	1	10.3	3.8	16.8	inactive
5	ESRRG (estrogen related receptor gamma)	0	2.5	14.7	-9.7	inactive
6	TMUB1 (transmembrane and ubiquitin like domain containing 1)	0	-1.8	3.5	-7.1	inactive
7	OR2F1 (olfactory receptor family 2 subfamily F member 1)	0	5.1	8.3	1.8	inactive
8	SLIRP-OT1 (SLIRP overlapping transcript 1)	0	3.7	-3.3	10.8	inactive
9	SLC22A7	-1	-13.9	-1.6	-26.2	inactive
10	INS (insulin)	-1	-5	24.1	-34.2	inactive
11	D2HGDH (D-2-hydroxyglutarate dehydrogenase)	0	7.9	2.2	13.6	inactive
12	LOC440480	0	9.6	18.2	0.9	inactive
13	SZRD1 (SUZ RNA binding domain containing 1)	0	-2.3	-1.7	-2.8	inactive
14	OGFR (opioid growth factor receptor)	0	-18.2	-23.4	-13	inactive
15	SET (SET nuclear proto-oncogene)	0	13.3	16.5	10.1	inactive
16	GPHN (gephyrin)	-1	-12.4	-18.7	-6.2	inactive
17	CAD	1	6.4	17.4	-4.6	inactive
18	GMPPB (GDP-mannose pyrophosphorylase B)	0	0.4	3.6	-2.7	inactive
19	STARD4 (StAR related lipid transfer domain containing 4)	0	7.4	6.2	8.7	inactive
20	NOLC1 (nucleolar and coiled-body phosphoprotein 1)	-1	-18.8	-24	-13.7	inactive
21	DYRK3 (dual specificity tyrosine phosphorylation regulated kinase 3)	0	-1.6	-6.4	3.1	inactive
22	LOC400729	1	16.1	12.1	20.1	inactive
23	LRRC15 (leucine rich repeat containing 15)	0	5.3	3.1	7.5	inactive

Quoted from above for reference:
no.	Target gene	two-siRNA summed score (-2 to +2)	mean protection from cisplatin (shift in death) (%)	protection from cisplatin (shift in death), siRNA C (%)	protection from cisplatin (shift in death), siRNA D (%)	Outcome
17	CAD	1	6.4	17.4	-4.6	inactive
18	GMPPB (GDP-mannose pyrophosphorylase B)	0	0.4	3.6	-2.7	inactive
19	STARD4 (StAR related lipid transfer domain containing 4)	0	7.4	6.2	8.7	inactive
